Patent publication US20250283871A1, “COMPOSITIONS AND METHODS FOR MODULATING THE INTERACTION BETWEEN SS18-SSX FUSION ONCOPROTEIN AND NUCLEOSOMES” (Dana-Farber Cancer Institute, Inc., priority 2020, published 2025)

B1: PNISR (protein, UniProt Q8TF01 1-805, looked up)
Arginine/serine-rich protein …: MWDQGGQPWQQWPLNQQQWMQSFQHQQDPSQIDWAALAQAWIAQREASGQQSMVEQPPGMMPNGQDMSTMESGPNNHGNFQGDSNFNRMWQPEWGMHQQPPHPPPDQPWMPPTPGPMDIVPPSEDSNSQDSGEFAPDNRHIFNQNNHNFGGPPDNFAVGPVNQFDYQHGAAFGPPQGGFHPPYWQPGPPGPPAPPQNRRERPSSFRDRQRSPIALPVKQEPPQIDAVKRRTLPAWIREGLEKMEREKQKKLEKERMEQQRSQLSKKEKKATEDAEGGDGPRLPQRSKFDSDEEEEDTENVEAASSGKVTRSPSPVPQEEHSDPEMTEEEKEYQMMLLTKMLLTEILLDVTDEEIYYVAKDAHRKATKAPAKQLAQSSALASLTGLGGLGGYGSGDSEDERSDRGSESSDTDDEELRHRIRQKQEAFWRKEKEQQLLHDKQMEEEKQQTERVTKEMNEFIHKEQNSLSLLEAREADGDVVNEKKRTPNETTSVLEPKKEHKEKEKQGRSRSGSSSSGSSSSNSRTSSTSSTVSSSSYSSSSGSSRTSSRSSSPKRKKRHSRSRSPTIKARRSRSRSYSRRIKIESNRARVKIRDRRRSNRNSIERERRRNRSPSRERRRSRSRSRDRRTNRASRSRSRDRRKIDDQRGNLSGNSHKHKGEAKEQERKKERSRSIDKDRKKKDKEREREQDKRKEKQKREEKDFKFSSQDDRLKRKRESERTFSRSGSISVKIIRHDSRQDSKKSTTKDSKKHSGSDSSGRSSSESPGSSKEKKAKKPKHSRSRSVEKSQRSGKKASRKHKSKSRSR
B2: ACIN1 (protein, UniProt Q9UKV3 1-1341, looked up)
Apoptotic chromatin …: MWRRKHPRTSGGTRGVLSGNRGVEYGSGRGHLGTFEGRWRKLPKMPEAVGTDPSTSRKMAELEEVTLDGKPLQALRVTDLKAALEQRGLAKSGQKSALVKRLKGALMLENLQKHSTPHAAFQPNSQIGEEMSQNSFIKQYLEKQQELLRQRLEREAREAAELEEASAESEDEMIHPEGVASLLPPDFQSSLERPELELSRHSPRKSSSISEEKGDSDDEKPRKGERRSSRVRQARAAKLSEGSQPAEEEEDQETPSRNLRVRADRNLKTEEEEEEEEEEEEDDEEEEGDDEGQKSREAPILKEFKEEGEEIPRVKPEEMMDERPKTRSQEQEVLERGGRFTRSQEEARKSHLARQQQEKEMKTTSPLEEEEREIKSSQGLKEKSKSPSPPRLTEDRKKASLVALPEQTASEEETPPPLLTKEASSPPPHPQLHSEEEIEPMEGPAPAVLIQLSPPNTDADTRELLVSQHTVQLVGGLSPLSSPSDTKAESPAEKVPEESVLPLVQKSTLADYSAQKDLEPESDRSAQPLPLKIEELALAKGITEECLKQPSLEQKEGRRASHTLLPSHRLKQSADSSSSRSSSSSSSSSRSRSRSPDSSGSRSHSPLRSKQRDVAQARTHANPRGRPKMGSRSTSESRSRSRSRSRSASSNSRKSLSPGVSRDSSTSYTETKDPSSGQEVATPPVPQLQVCEPKERTSTSSSSVQARRLSQPESAEKHVTQRLQPERGSPKKCEAEEAEPPAATQPQTSETQTSHLPESERIHHTVEEKEEVTMDTSENRPENDVPEPPMPIADQVSNDDRPEGSVEDEEKKESSLPKSFKRKISVVSATKGVPAGNSDTEGGQPGRKRRWGASTATTQKKPSISITTESLKSLIPDIKPLAGQEAVVDLHADDSRISEDETERNGDDGTHDKGLKICRTVTQVVPAEGQENGQREEEEEEKEPEAEPPVPPQVSVEVALPPPAEHEVKKVTLGDTLTRRSISQQKSGVSITIDDPVRTAQVPSPPRGKISNIVHISNLVRPFTLGQLKELLGRTGTLVEEAFWIDKIKSHCFVTYSTVEEAVATRTALHGVKWPQSNPKFLCADYAEQDELDYHRGLLVDRPSETKTEEQGIPRPLHPPPPPPVQPPQHPRAEQREQERAVREQWAEREREMERRERTRSEREWDRDKVREGPRSRSRSRDRRRKERAKSKEKKSEKKEKAQEEPPAKLLDDLFRKTKAAPCIYWLPLTDSQIVQKEAERAERAKEREKRRKEQEEEEQKEREKEAERERNRQLEREKRREHSRERDRERERERERDRGDRDRDRERDRERGRERDRRDTKRHSRSRSRSTPVRDRGGRR
B3: RBM39 (protein, UniProt Q14498 2-530, looked up)
RNA-binding protein 39: ADDIDIEAMLEAPYKKDENKLSSANGHEERSKKRKKSKSRSRSHERKRSKSKERKRSRDRERKKSKSRERKRSRSKERRRSRSRSRDRRFRGRYRSPYSGPKFNSAIRGKIGLPHSIKLSRRRSRSKSPFRKDKSPVREPIDNLTPEERDARTVFCMQLAARIRPRDLEEFFSTVGKVRDVRMISDRNSRRSKGIAYVEFVDVSSVPLAIGLTGQRVLGVPIIVQASQAEKNRAAAMANNLQKGSAGPMRLYVGSLHFNITEDMLRGIFEPFGRIESIQLMMDSETGRSKGYGFITFSDSECAKKALEQLNGFELAGRPMKVGHVTERTDASSASSFLDSDELERTGIDLGTTGRLQLMARLAEGTGLQIPPAAQQALQMSGSLAFGAVAEFSFVIDLQTRLSQQTEASALAAAASVQPLATQCFQLSNMFNPQTEEEVGWDTEIKDDVIEECNKHGGVIHIYVDKNSAQGNVYVKCPSIAAAIAAVNALHGRWFAGKMITAAYVPLPTYHNLFPDSMTATQLLVPSRR
B4: TRIM28 (protein, UniProt Q13263 2-835, looked up)
Transcription intermediary …: AASAAAASAAAASAASGSPGPGEGSAGGEKRSTAPSAAASASASAAASSPAGGGAEALELLEHCGVCRERLRPEREPRLLPCLHSACSACLGPAAPAAANSSGDGGAAGDGTVVDCPVCKQQCFSKDIVENYFMRDSGSKAATDAQDANQCCTSCEDNAPATSYCVECSEPLCETCVEAHQRVKYTKDHTVRSTGPAKSRDGERTVYCNVHKHEPLVLFCESCDTLTCRDCQLNAHKDHQYQFLEDAVRNQRKLLASLVKRLGDKHATLQKSTKEVRSSIRQVSDVQKRVQVDVKMAILQIMKELNKRGRVLVNDAQKVTEGQQERLERQHWTMTKIQKHQEHILRFASWALESDNNTALLLSKKLIYFQLHRALKMIVDPVEPHGEMKFQWDLNAWTKSAEAFGKIVAERPGTNSTGPAPMAPPRAPGPLSKQGSGSSQPMEVQEGYGFGSGDDPYSSAEPHVSGVKRSRSGEGEVSGLMRKVPRVSLERLDLDLTADSQPPVFKVFPGSTTEDYNLIVIERGAAAAATGQPGTAPAGTPGAPPLAGMAIVKEEETEAAIGAPPTATEGPETKPVLMALAEGPGAEGPRLASPSGSTSSGLEVVAPEGTSAPGGGPGTLDDSATICRVCQKPGDLVMCNQCEFCFHLDCHLPALQDVPGEEWSCSLCHVLPDLKEEDGSLSLDGADSTGVVAKLSPANQRKCERVLLALFCHEPCRPLHQLATDSTFSLDQPGGTLDLTLIRARLQEKLSPPYSSPQEFAQDVGRMFKQFNKLTEDKADVQSIIGLQRFFETRMNEAFGDTKFSAVLVEPPPMSLPGAGLSSQELSGGPGDGP
B5: FYTTD1 (protein, UniProt Q96QD9 1-318, looked up)
UAP56-interacting factor: MNRFGTRLVGATATSSPPPKARSNENLDKIDMSLDDIIKLNRKEGKKQNFPRLNRRLLQQSGAQQFRMRVRWGIQQNSGFGKTSLNRRGRVMPGKRRPNGVITGLAARKTTGIRKGISPMNRPPLSDKNIEQYFPVLKRKANLLRQNEGQRKPVAVLKRPSQLSRKNNIPANFTRSGNKLNHQKDTRQATFLFRRGLKVQAQLNTEQLLDDVVAKRTRQWRTSTTNGGILTVSIDNPGAVQCPVTQKPRLTRTAVPSFLTKREQSDVKKVPKGVPLQFDINSVGKQTGMTLNERFGILKEQRATLTYNKGGSRFVTVG

Test system: BAF complex subunits and histone proteins
Assay: Mass spectrometry proteomics of purified HA-SS18 WT and HA-SS18-SSX1 complexes (Tables 5A-5E)
Set-up: species or system human
Settings: HEK-293T
[1] = HA-SS18SSX1_CHR_peptides: protein identified in the HA-SS18-SSX1 purification from solubilized chromatin (CHR)
[2] = HA-SS18WT_CHR_peptides: HA-SS18 WT purification from nuclease-treated solubilized chromatin (CHR), label = protein identified
[3] = HA-SS18SSX1 purification, NE (soluble nuclear extract) fraction, peptides per identified protein
[4] = HA-SS18WT_CHR_peptides: protein identified in HA-SS18 WT BAF complex purification from nuclease-treated solubilized chromatin (CHR)
[5] = HA-SS18WT_NE_peptides: HA-SS18 WT complexes purified from nuclear extract (NE), label = protein identified (Gene Symbol)

| Molecule | Total (total peptides) [1] | Unique (unique peptides) [1] | Total (peptides) [2] | Unique (peptides) [2] | Total (total peptides) [3] | Unique (unique peptides) [3] | Total (total peptides) [4] | Unique (unique peptides) [4] | Total (peptides) [5] | Unique (peptides) [5] |
| --- | --- | --- | --- | --- | --- | --- | --- | --- | --- | --- |
| B1 | 5 | 3 | – | – | – | – | – | – | – | – |
| B2 | 54 | 27 | 13 | 12 | – | – | – | – | – | – |
| B3 | 4 | 4 | – | – | 3 | 3 | 2 | 2 | 3 | 3 |
| B4 | 4 | 4 | – | – | – | – | 1 | 1 | – | – |
| B5 | 4 | 4 | 3 | 3 | – | – | – | – | – | – |
